In all, about 2,400 compounds went through this assay and about 20 (0.8%) were called active.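 The calls were made as follows: active = AC50 no more than ten times the highest tested concentration, or full inhibition at every dose giving a flat fit (cut at about 30 µM in these data); inconclusive = flat fit with activity between 30% and 70%, or poor-quality invalid fit; inactive = AC50 more than ten times the top tested dose.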 Some of the results follow.
Assay: inhibitors of ADP-Glo detection reagents, dose response, artefact control for GSK-3a inhibitor project, biochemical, luminescence, cell-free, homogeneous (AID 463205);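 also: kinase-free counter-screen against the ADP-Glo detection reagents only; potency is for inhibitors that reduce the luminescence signal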
Settings: 5 uM ADP

AC50, inactive:
O=C(Nc1ccccc1N1CCN(C(=O)c2ccccc2)CC1)c1ccc(Br)o1 > 30 µM, COc1ccc(COC(=O)C2=C(C)NC(=O)NC2c2ccc(OC)c(OC)c2)cc1 (stereo not given) > 30 µM, Cc1nc(SCC(=O)Nc2ccccc2C(F)(F)F)c(C#N)c(C)c1CC(=O)c1ccc(Br)cc1 > 30 µM, CCOC(=O)c1nnn(-c2nonc2N)c1-c1ccccc1Cl > 30 µM, Cc1ccsc1C1C2=C(CCCC2=O)Nc2ncnn21 (stereo not given) > 30 µM, COc1cc(/C=c2\s/c(=C\C(=O)C(C)(C)C)[nH]c2=O)cc(OC)c1OC > 30 µM, FC(F)(F)c1ccccc1/C=N/n1c(C2CCCCC2)n[nH]c1=S > 30 µM, COc1cc(OC)cc(C(=O)O/N=C(\N)c2ccccn2)c1 > 30 µM, Cc1ccc(-n2c(SCc3ccc(C(=O)O)cc3)nnc2-c2ccncc2)cc1 > 30 µM, CO/N=C/c1ccc(N2CCCC2)c([N+](=O)[O-])c1 > 30 µM, CN1C(=O)N(C)C2(c3ccccc3)Nn3c(s/c(=C/c4ccccc4)c3=O)=NC12c1ccccc1 (stereo not given) > 30 µM, CC(C)(C)c1ccc(/C=C2\Oc3cc(O)ccc3C2=O)cc1 > 30 µM, CN(CCc1ccccn1)c1ncnc2[nH]ncc12 > 30 µM, Cc1ccc(S(=O)(=O)Nc2cccc3ncccc23)cc1 > 30 µM, COc1cc(C(=O)NCC(=O)N/N=C(C)\C=C\c2ccccc2)cc(OC)c1OC > 30 µM, CCc1ccc(N2CSC3=C(C#N)C(c4cccs4)CC(=O)N3C2)cc1 (stereo not given) > 30 µM, FC(F)(F)c1nnc2n1N=C(c1cccs1)CS2 > 30 µM, CC1(C)CC(=O)C(C(c2ccncc2)C2C(=O)CC(C)(C)CC2=O)C(=O)C1 > 30 µM, Oc1ccc(-c2n[nH]c(=S)n2-c2ccc3c(c2)OCCO3)cc1 > 30 µM, O=C(COC(=O)c1cc(S(=O)(=O)N2CCOCC2)ccc1F)Nc1ccc(Cl)cn1 > 30 µM, O=C1c2ccccc2C(=O)c2c(Nc3ccc(CCO)cc3)ccc(O)c21 > 30 µM, NC(=O)c1c(NC(=O)CSc2nnc(-c3ccccc3)n2CC2CCCO2)sc2c1CCC2 (stereo not given) > 30 µM, CCOC(=O)Cc1c[nH]c2ccccc12 > 30 µM, CCOC(=O)C1=C(c2ccccc2)Nc2ncnn2C1c1cccc(OC)c1OC (stereo not given) > 30 µM, Cc1ccc2c(c1)Oc1ccc(NC(=O)CCCl)cc1C(=O)N2 > 30 µM

— PubChem BioAssay AID463205 (Broad Institute, 2010)
